Article PMC5147794
No constants are given. Whether binding was seen depends on the method and setting. For some of these results: Binding seen in cells or lysates may run through a third protein. Some entries that bind do so weakly or less than the wild type. For some of these results: Where a sequence is shown, tags or fusion partners need not be part of it. One block for each binder: values may come before it.

Experiments:
[1] = target: T1, MITOGEN-… PROTEIN KINASE 12 (MPK12), Col-0 version, split-ubiquitin bait (Arabidopsis thaliana (Col-0 cDNA)) (UniProt Q8GYQ5); test: two-hybrid; pairwise split-ubiquitin yeast two-hybrid (DUALhunter and DUALmembrane 3 kits), strain NMY51; bait in pDHB1 (Cub-LexA-VP16), prey in pPR3-N (NubG); growth on SD-Leu-Trp-His-Ade, X-gal overlay, quantitative beta-galactosidase assay from pools of ten colonies
T1 sequence: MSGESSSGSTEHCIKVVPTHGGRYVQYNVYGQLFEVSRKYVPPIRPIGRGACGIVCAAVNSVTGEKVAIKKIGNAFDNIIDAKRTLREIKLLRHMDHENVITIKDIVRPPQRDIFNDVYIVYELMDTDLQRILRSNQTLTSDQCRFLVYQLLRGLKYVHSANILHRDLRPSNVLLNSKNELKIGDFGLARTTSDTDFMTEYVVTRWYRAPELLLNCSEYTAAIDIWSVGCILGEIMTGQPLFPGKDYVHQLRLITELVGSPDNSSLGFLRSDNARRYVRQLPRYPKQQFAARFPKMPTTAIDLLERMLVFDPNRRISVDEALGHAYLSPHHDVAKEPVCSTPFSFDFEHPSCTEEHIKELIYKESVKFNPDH

[2] = target: T2, HIGH LEAF TEMPERATURE 1 (HT1), split-ubiquitin bait (Arabidopsis thaliana (Col-0 cDNA)) (UniProt Q2MHE4); test: as above
T2 sequence: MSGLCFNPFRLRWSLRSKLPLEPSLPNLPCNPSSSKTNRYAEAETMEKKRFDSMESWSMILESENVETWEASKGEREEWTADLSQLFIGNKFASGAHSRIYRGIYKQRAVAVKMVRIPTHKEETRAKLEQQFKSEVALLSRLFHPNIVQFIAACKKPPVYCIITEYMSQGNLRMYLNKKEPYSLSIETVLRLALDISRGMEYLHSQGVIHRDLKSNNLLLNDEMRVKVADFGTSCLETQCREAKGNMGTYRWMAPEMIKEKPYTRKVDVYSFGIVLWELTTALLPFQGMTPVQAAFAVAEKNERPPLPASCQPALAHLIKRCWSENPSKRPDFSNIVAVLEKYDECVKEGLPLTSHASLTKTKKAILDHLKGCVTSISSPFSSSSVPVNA

[3] = target: T3, HT1, split-YFP fusion for BiFC (Arabidopsis thaliana) (UniProt Q2MHE4); test: split reporter; ratiometric BiFC with split YFP in agro-infiltrated N. benthamiana leaves, co-infiltrated with SLAC1-CFP internal control and P19; confocal images at 3 dpi
T3 sequence: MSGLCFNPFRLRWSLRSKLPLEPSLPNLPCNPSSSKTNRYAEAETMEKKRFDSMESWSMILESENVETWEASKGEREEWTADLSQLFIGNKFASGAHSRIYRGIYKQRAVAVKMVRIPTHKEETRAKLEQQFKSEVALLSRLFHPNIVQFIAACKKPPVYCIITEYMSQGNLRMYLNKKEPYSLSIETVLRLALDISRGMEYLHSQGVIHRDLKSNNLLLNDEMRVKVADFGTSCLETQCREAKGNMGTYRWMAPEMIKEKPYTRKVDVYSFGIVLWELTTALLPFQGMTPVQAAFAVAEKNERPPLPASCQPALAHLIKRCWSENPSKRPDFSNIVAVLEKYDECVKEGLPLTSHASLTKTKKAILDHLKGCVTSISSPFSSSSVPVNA

[4] = target: T4, HT1 fused to cLUC (Arabidopsis thaliana) (UniProt Q2MHE4); test: split reporter; split luciferase complementation (nLUC/cLUC) in agro-infiltrated N. benthamiana leaves with P19; bioluminescence after 3 d, CCD camera
T4 sequence: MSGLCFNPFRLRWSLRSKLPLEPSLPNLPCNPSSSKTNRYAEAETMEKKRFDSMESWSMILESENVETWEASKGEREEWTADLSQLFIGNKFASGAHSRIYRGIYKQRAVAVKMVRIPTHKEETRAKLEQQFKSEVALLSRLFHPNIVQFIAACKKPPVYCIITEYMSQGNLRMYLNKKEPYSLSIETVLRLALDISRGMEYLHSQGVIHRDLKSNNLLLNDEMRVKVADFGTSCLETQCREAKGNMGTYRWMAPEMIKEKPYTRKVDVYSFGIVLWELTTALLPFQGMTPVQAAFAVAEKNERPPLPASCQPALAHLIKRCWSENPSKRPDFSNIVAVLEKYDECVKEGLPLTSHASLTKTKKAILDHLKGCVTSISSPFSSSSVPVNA

B1: INDOLE-3-BUTYRIC ACID RESPONSE 5 (IBR5), split-ubiquitin prey (protein, UniProt Q84JU4 1-257)
chain: MRKRERENPCSICGHYHKYEEGEVCGVCGHCMPVSSDTVAPQQVHVSAFPSEILPEFLYLGSYDNASRSELLKTQGISRVLNTVPMCQNLYRNSFTYHGLDNEKVLQFDDAIKFLDQCEKDKARVLVHCMSGKSRSPAVVVAYLMKRKGWRLAESHQWVKQRRPSTDISPEFYQQLQEFEQGIFGSEMMSAMNINDAPTFGFGFPKIDNQAQAPVFNNAPTSSIFSSPASSIPPQEFTFGATPPKPTTGGDIAMDGS
binding [1]: binds

B2: HIGH LEAF TEMPERATURE 1 (HT1), split-ubiquitin prey (protein, UniProt Q2MHE4 1-390)
chain: MSGLCFNPFRLRWSLRSKLPLEPSLPNLPCNPSSSKTNRYAEAETMEKKRFDSMESWSMILESENVETWEASKGEREEWTADLSQLFIGNKFASGAHSRIYRGIYKQRAVAVKMVRIPTHKEETRAKLEQQFKSEVALLSRLFHPNIVQFIAACKKPPVYCIITEYMSQGNLRMYLNKKEPYSLSIETVLRLALDISRGMEYLHSQGVIHRDLKSNNLLLNDEMRVKVADFGTSCLETQCREAKGNMGTYRWMAPEMIKEKPYTRKVDVYSFGIVLWELTTALLPFQGMTPVQAAFAVAEKNERPPLPASCQPALAHLIKRCWSENPSKRPDFSNIVAVLEKYDECVKEGLPLTSHASLTKTKKAILDHLKGCVTSISSPFSSSSVPVNA
binding [1]: binds

B3: MITOGEN-… PROTEIN KINASE 12 (MPK12), Col-0 version, split-ubiquitin prey (protein, UniProt Q8GYQ5 1-372)
chain: MSGESSSGSTEHCIKVVPTHGGRYVQYNVYGQLFEVSRKYVPPIRPIGRGACGIVCAAVNSVTGEKVAIKKIGNAFDNIIDAKRTLREIKLLRHMDHENVITIKDIVRPPQRDIFNDVYIVYELMDTDLQRILRSNQTLTSDQCRFLVYQLLRGLKYVHSANILHRDLRPSNVLLNSKNELKIGDFGLARTTSDTDFMTEYVVTRWYRAPELLLNCSEYTAAIDIWSVGCILGEIMTGQPLFPGKDYVHQLRLITELVGSPDNSSLGFLRSDNARRYVRQLPRYPKQQFAARFPKMPTTAIDLLERMLVFDPNRRISVDEALGHAYLSPHHDVAKEPVCSTPFSFDFEHPSCTEEHIKELIYKESVKFNPDH
binding [2]: binds

B6: MPK12 (Col-0 version), split-YFP fusion for BiFC (protein, UniProt Q8GYQ5 1-372)
chain: MSGESSSGSTEHCIKVVPTHGGRYVQYNVYGQLFEVSRKYVPPIRPIGRGACGIVCAAVNSVTGEKVAIKKIGNAFDNIIDAKRTLREIKLLRHMDHENVITIKDIVRPPQRDIFNDVYIVYELMDTDLQRILRSNQTLTSDQCRFLVYQLLRGLKYVHSANILHRDLRPSNVLLNSKNELKIGDFGLARTTSDTDFMTEYVVTRWYRAPELLLNCSEYTAAIDIWSVGCILGEIMTGQPLFPGKDYVHQLRLITELVGSPDNSSLGFLRSDNARRYVRQLPRYPKQQFAARFPKMPTTAIDLLERMLVFDPNRRISVDEALGHAYLSPHHDVAKEPVCSTPFSFDFEHPSCTEEHIKELIYKESVKFNPDH
binding [3]: binds

More lines, now with the values ahead:

binding [3]: binds
B4: MPK12 G53R (Cvi-0 version), split-YFP fusion for BiFC (protein, UniProt Q8GYQ5 1-372)
chain: MSGESSSGSTEHCIKVVPTHGGRYVQYNVYGQLFEVSRKYVPPIRPIGRGACRIVCAAVNSVTGEKVAIKKIGNAFDNIIDAKRTLREIKLLRHMDHENVITIKDIVRPPQRDIFNDVYIVYELMDTDLQRILRSNQTLTSDQCRFLVYQLLRGLKYVHSANILHRDLRPSNVLLNSKNELKIGDFGLARTTSDTDFMTEYVVTRWYRAPELLLNCSEYTAAIDIWSVGCILGEIMTGQPLFPGKDYVHQLRLITELVGSPDNSSLGFLRSDNARRYVRQLPRYPKQQFAARFPKMPTTAIDLLERMLVFDPNRRISVDEALGHAYLSPHHDVAKEPVCSTPFSFDFEHPSCTEEHIKELIYKESVKFNPDH

binding [2]: binds weakly
B5: MPK12 G53R (Cvi-0 version of MPK12), split-ubiquitin prey (protein, UniProt Q8GYQ5 1-372)
chain: MSGESSSGSTEHCIKVVPTHGGRYVQYNVYGQLFEVSRKYVPPIRPIGRGACRIVCAAVNSVTGEKVAIKKIGNAFDNIIDAKRTLREIKLLRHMDHENVITIKDIVRPPQRDIFNDVYIVYELMDTDLQRILRSNQTLTSDQCRFLVYQLLRGLKYVHSANILHRDLRPSNVLLNSKNELKIGDFGLARTTSDTDFMTEYVVTRWYRAPELLLNCSEYTAAIDIWSVGCILGEIMTGQPLFPGKDYVHQLRLITELVGSPDNSSLGFLRSDNARRYVRQLPRYPKQQFAARFPKMPTTAIDLLERMLVFDPNRRISVDEALGHAYLSPHHDVAKEPVCSTPFSFDFEHPSCTEEHIKELIYKESVKFNPDH

binding [4]: binds
B7: MPK12:nLUC (protein, UniProt Q8GYQ5 1-372)
chain: MSGESSSGSTEHCIKVVPTHGGRYVQYNVYGQLFEVSRKYVPPIRPIGRGACGIVCAAVNSVTGEKVAIKKIGNAFDNIIDAKRTLREIKLLRHMDHENVITIKDIVRPPQRDIFNDVYIVYELMDTDLQRILRSNQTLTSDQCRFLVYQLLRGLKYVHSANILHRDLRPSNVLLNSKNELKIGDFGLARTTSDTDFMTEYVVTRWYRAPELLLNCSEYTAAIDIWSVGCILGEIMTGQPLFPGKDYVHQLRLITELVGSPDNSSLGFLRSDNARRYVRQLPRYPKQQFAARFPKMPTTAIDLLERMLVFDPNRRISVDEALGHAYLSPHHDVAKEPVCSTPFSFDFEHPSCTEEHIKELIYKESVKFNPDH
